Experimental data: article doi:10.1101/2025.01.09.632196
No constants are given. Whether binding was seen depends on the method and setting. Binding seen in cells or lysates may run through a third protein. Some entries that bind do so weakly or less than the wild type. Tags and fused reporters may be left off the sequences shown.

Biological target: T1, DCP5-GFP (Arabidopsis thaliana) (UniProt Q9C658)
T1 sequence: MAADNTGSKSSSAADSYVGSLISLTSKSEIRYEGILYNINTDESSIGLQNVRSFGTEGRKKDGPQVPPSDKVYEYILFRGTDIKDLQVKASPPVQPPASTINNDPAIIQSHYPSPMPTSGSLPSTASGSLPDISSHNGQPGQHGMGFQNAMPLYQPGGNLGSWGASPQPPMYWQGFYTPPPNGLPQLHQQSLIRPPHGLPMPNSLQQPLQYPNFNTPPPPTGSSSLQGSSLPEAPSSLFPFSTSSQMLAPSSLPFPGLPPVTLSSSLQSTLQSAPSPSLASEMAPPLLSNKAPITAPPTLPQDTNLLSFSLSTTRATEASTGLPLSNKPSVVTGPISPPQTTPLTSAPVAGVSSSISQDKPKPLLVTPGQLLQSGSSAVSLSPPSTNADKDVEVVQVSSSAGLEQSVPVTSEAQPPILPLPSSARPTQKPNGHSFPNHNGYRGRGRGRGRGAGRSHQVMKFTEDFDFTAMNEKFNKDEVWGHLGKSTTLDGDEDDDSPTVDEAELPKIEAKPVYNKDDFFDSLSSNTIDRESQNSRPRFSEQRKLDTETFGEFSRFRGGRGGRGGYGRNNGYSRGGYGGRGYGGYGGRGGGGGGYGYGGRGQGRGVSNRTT
Test: co-IP

## HopN1-HA (from UniProt G3XDC5 1-350)
  binding: binds
